We go through one molecule from paper PMC11088876.

Chains of the proteins cited; added tags and fusions are not shown.
UniProt P27037: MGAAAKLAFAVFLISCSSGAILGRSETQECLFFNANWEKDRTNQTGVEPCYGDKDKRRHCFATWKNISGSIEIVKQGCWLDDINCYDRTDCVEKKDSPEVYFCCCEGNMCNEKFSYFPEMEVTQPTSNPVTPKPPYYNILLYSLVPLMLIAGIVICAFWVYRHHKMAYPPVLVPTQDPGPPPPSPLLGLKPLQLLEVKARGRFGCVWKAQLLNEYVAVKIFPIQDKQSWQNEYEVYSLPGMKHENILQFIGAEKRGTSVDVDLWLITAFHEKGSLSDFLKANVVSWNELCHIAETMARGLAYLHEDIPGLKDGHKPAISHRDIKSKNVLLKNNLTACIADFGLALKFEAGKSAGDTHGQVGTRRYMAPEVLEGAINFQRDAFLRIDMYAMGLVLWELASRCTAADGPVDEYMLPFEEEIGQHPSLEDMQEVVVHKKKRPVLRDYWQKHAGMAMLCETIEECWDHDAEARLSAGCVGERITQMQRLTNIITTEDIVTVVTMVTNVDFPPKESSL

For experiment [1], the target named is Recombinant human ActRIIA-Fc (human) (UniProt P27037). In words: SPR; ActRIIA-Fc or ActRIIB-Fc captured on a Series S Protein A chip (~70 RU); ActE titrated, 10-step two-fold dilution from 100 nM; HBS-EP+ (20 mM HEPES, 500 mM NaCl, 3.4 mM EDTA, 0.05% P-20, 0.5 mg/ml BSA), 25 C, Biacore T200, 50 ul/min; steady state fit; both purified.
For experiment [2], the target named is T1, Recombinant human ActRIIB-Fc (human) (UniProt Q13705).
T1 sequence: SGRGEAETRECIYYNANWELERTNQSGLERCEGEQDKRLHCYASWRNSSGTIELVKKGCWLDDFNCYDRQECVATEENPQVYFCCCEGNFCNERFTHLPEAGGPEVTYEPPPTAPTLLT
Described as above.

Results are given in words; binding and its absence hold for the method and conditions named. Some results given as binding are weak or reduced against the parent protein; the word gives no strength. For some assays here: Where a sequence is shown, tags or fusion partners need not be part of it.

B1: Recombinant human ActE (bacterially derived, provided by R&D Systems) (ligand, UniProt P58166 237-350)
chain: TPTCEPATPLCCRRDHYVDFQELGWRDWILQPEGYQLNYCSGQCPPHLAGSPGIAASFHSAVFSLLKANNPWPASTSCCVPTARRPLSLLYLDHNGNVVKTDVPDMVVEACGCS
As to B1, the binding result in experiment [1] and in experiment [2] was “binds weakly” in each case.
